Data from publication PMC5320654.
These are yes or no findings as the source states them, for the method shown. In cells and extracts the contact can be indirect. Where a sequence is shown, tags or fusion partners need not be part of it.

Legend:
Test in all cases: co-IP; FLAG-WDR13 or its FLAG-tagged deletion constructs over-expressed in HEK293, immunocomplex purified with anti-FLAG agarose beads, blots for the partner proteins of the cells (endogenous in Fig. 6a)
[1] = biological target: T1, FLAG-tagged WDR13 deletion construct FL-193 (UniProt Q91V09)
T1 sequence: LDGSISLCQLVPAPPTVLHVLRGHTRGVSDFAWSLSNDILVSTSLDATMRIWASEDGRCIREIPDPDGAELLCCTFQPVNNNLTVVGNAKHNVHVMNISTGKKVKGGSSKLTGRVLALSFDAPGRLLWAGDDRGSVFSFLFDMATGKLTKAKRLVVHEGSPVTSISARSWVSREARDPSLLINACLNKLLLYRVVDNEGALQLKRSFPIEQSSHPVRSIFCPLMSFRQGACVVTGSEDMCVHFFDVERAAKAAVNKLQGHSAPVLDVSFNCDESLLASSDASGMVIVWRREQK

[2] = biological target: T2, FLAG-tagged WDR13 deletion construct FL-293 (UniProt Q91V09)
T2 sequence: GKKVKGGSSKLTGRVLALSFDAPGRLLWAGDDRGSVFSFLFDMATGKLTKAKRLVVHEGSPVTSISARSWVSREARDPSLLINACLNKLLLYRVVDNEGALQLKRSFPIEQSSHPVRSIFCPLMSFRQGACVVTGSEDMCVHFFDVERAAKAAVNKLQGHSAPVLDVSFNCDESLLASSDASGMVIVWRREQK

[3] = biological target: T3, FLAG-tagged WDR13 deletion construct FL-393 (UniProt Q91V09)
T3 sequence: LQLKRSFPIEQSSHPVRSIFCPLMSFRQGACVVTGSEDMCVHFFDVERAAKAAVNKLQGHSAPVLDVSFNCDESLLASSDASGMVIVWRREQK

[4] = biological target: T4, FLAG-tagged WDR13 deletion construct FL-93 (UniProt Q91V09)
T4 sequence: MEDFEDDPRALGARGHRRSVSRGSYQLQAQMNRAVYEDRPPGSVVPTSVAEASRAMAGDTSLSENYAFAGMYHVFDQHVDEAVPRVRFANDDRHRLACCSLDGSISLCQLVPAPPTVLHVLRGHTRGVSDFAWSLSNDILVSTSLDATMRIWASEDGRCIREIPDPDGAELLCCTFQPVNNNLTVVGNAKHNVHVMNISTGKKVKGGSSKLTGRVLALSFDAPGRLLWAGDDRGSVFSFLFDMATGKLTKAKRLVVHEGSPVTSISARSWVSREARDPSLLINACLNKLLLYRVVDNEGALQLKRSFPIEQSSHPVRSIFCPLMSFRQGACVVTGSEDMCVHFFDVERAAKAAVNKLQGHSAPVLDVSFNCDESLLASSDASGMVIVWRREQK

- binding [1]: no binding
- binding [2]: no binding
- binding [3]: no binding
- binding [4]: no binding
Substance: NFκB
